According to paper PMC5058698:
These are yes or no findings as the source states them, for the method shown. Some binding calls cover weakened binding; strength is not graded here.

By UniProt entry, the sequences of proteins in these tests, tags left out. Residues count along the entry.
UniProt P28908, residues 19-385: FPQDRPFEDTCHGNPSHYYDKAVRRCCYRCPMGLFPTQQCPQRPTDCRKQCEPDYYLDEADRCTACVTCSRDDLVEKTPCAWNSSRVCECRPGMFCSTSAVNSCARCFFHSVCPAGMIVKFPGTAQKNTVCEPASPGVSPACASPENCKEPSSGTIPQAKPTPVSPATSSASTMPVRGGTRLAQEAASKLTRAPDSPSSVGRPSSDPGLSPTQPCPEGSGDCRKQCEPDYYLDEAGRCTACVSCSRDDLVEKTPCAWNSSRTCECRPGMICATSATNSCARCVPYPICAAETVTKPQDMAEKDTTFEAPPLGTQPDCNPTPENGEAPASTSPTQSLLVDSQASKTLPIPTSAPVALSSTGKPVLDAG

Biological target: T1, CD30 ligand (CD30L) on HMC1.2 mast cells (human (endogenous in HMC1.2)) (UniProt P32971)
T1 sequence: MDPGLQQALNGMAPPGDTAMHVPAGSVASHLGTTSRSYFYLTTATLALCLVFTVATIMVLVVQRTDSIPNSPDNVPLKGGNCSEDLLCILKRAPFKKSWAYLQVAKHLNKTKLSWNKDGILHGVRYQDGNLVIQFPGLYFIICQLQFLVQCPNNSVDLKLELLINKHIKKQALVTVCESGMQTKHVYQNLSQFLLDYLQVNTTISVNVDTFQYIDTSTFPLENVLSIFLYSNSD
Assay: flow cytometry on cells; HMC1.2 cells (5 x 10^5/mL) incubated for 1 h on ice with CD30Fc; target on cells

CD30Fc (from UniProt P28908 19-385) (Fc fusion)
binding: binds
